# ± gives the standard deviation. This is one part of the list. The uncertainty is large for many entries.
# System: EfPiwi piRISC loaded with L1MC piRNA (26 nt)
# Assay: pre-steady-state target cleavage rate (min^-1); guide: L1MC piRNA 5'p-UAACUAAAUACUAUGCAAGCUGUAGG; MIWI and MILI are mouse PIWI proteins and EfPiwi is from a freshwater sponge; tags in brackets are library labels; higher = faster piRNA-guided slicing of the target
# Conditions: auxiliary factor: none (no Gtsf1)
# Summary of the method: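 Active affinity-purified piRISC (1 nM) loaded with one synthetic guide was mixed with a transcribed, DNA-blocked target RNA library (0.1 nM), with or without 500 nM GTSF1 partner protein, in HEPES–potassium acetate buffer at 33 °C for 0–8 or 0–960 min. Uncleaved targets were sequenced, normalised to depth and to weakly complementary targets, and pooled across three trials, with k3 capped at 0.0001 min^-1. The pre-steady-state cleavage rate was determined with a burst-and-steady-state fit.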
row,Sequence,pre-steady-state target cleavage rate
1,UCCUCCUACAGCUACCAUAGUAUUUAGUUA,0.00061 ± 0.0099
2,UCCUGGAUGUCGAACCAUAGUAUGUUAGUUA,0.000439 ± 0.015
3,UCCUGGAUGUCGAAGCAUAGUAUUUAGUGA,< 0.0001
4,UCCUGGAUGUCGAAGGAUAGUAUAUAGUUA,0.000155 ± 0.049
5,UCCUGGAUCAGGAAGCAUAGUAUUUACAAA,0.000104 ± 0.057
6,UCCUGGAUGUCGAUGGUAAGUAUUUAGUUA,0.000246 ± 0.035
7,UCCUCCUACAGCUUGCAAUCUAUUUAGUAA,0.000452 ± 0.011

# Reference: the supplement of paper PMC10338343
